Reference: the supplement of paper PMC4635364
Structures can show the parent of a compound that is named as a salt. The list shows a part of the results. This data set is noisy: repeats of one test often differ as much as different tests do.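 Human fetal ventral-midbrain neural progenitor line ReNCell VM, differentiated without mitogens. Images stained for doublecortin (early neurons) or tyrosine hydroxylase (dopaminergic neurons) were scored by blinded raters against untreated wells (0 = no change). Repeats and both raters were averaged, and compounds averaging 2 or higher were picked as hits for retesting.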

Experiments:
ReNCell VM [1] = test: neuronal differentiation score (DCX+ cell fraction vs untreated, manual image score) (score (-3 to 3)); higher = more neuronal differentiation; settings: 2 uM, 2 weeks
ReNCell VM [2] = test: dopaminergic neuron differentiation score (TH+ cell fraction vs untreated, manual image score) (score (0 to 3)); higher = more TH+ dopaminergic neuron differentiation; settings: 2 uM, 4 weeks, BDNF 10 ng/ml + GDNF 10 ng/ml

OC[C@H]1O[C@@H](n2cnc3c(NCc4ccco4)ncnc32)[C@H](O)[C@@H]1O [Kinetin riboside]
neuronal differentiation score (ReNCell VM [1]; library: Phytochemical): inactive: 0 | dopaminergic neuron differentiation score (ReNCell VM [2]; library: Phytochemical): inactive: 0

C[C@@H]1CN(c2c(F)c(N)c3c(=O)c(C(=O)O)cn(C4CC4)c3c2F)C[C@H](C)N1 [Sparfloxacin]
neuronal differentiation score (ReNCell VM [1]; library: Prestwick): inactive: 0 | dopaminergic neuron differentiation score (ReNCell VM [2]; library: Prestwick): inactive: 0

Cc1[nH]ccc2c(C)c3nc4ccccc4c3cc12 [Olivacine]
neuronal differentiation score (ReNCell VM [1]; library: Phytochemical): inactive: 0 | dopaminergic neuron differentiation score (ReNCell VM [2]; library: Phytochemical): inactive: 0

Cc1cnc(NC(=O)C2=C(O)c3ccccc3S(=O)(=O)N2C)s1 [Meloxicam sodium]
neuronal differentiation score (ReNCell VM [1]; library: LOPAC): inactive: 0 | dopaminergic neuron differentiation score (ReNCell VM [2]; library: LOPAC): inactive: 0

CCN(CCO)CCCC(C)Nc1ccnc2cc(Cl)ccc12 (centres undefined)
neuronal differentiation score (ReNCell VM [1]; library: Spectrum): inactive: 0 | dopaminergic neuron differentiation score (ReNCell VM [2]; library: Spectrum): inactive: 0

c1ccc2c(c1)CCC[C@H]2Nc1nc2ccccc2[nH]1 [NS8593 hydrochloride]
neuronal differentiation score (ReNCell VM [1]; library: LOPAC): inactive: 0 | dopaminergic neuron differentiation score (ReNCell VM [2]; library: LOPAC): inactive: 0

COc1cccc(C(=O)CC2c3c(c(Br)c4c(c3OC)OCO4)CCN2C)c1 (centres undefined)
neuronal differentiation score (ReNCell VM [1]; library: Natural): inactive: 0 | dopaminergic neuron differentiation score (ReNCell VM [2]; library: Natural): inactive: 0

COC(=O)C[C@H]1C(C)(C)C(=O)[C@@H]2CC3C4=CC(=O)O[C@@H](c5ccoc5)[C@]4(C)CC[C@@H]3[C@@]1(C)C2=O (some centres undefined)
neuronal differentiation score (ReNCell VM [1]; library: Spectrum): inactive: 0 | dopaminergic neuron differentiation score (ReNCell VM [2]; library: Spectrum): inactive: 0

NC(=O)N1c2ccccc2C=Cc2ccccc21
neuronal differentiation score (ReNCell VM [1]; library: Spectrum): inactive: 0 | dopaminergic neuron differentiation score (ReNCell VM [2]; library: Spectrum): inactive: 0

Nc1ccc(C(=O)O)c(O)c1
neuronal differentiation score (ReNCell VM [1]; library: Spectrum): inactive: 0 | dopaminergic neuron differentiation score (ReNCell VM [2]; library: Spectrum): inactive: 0

CCCCCCCCNC(C)C(O)c1ccc(SC(C)C)cc1 (centres undefined)
neuronal differentiation score (ReNCell VM [1]; library: Spectrum): inactive: 0 | dopaminergic neuron differentiation score (ReNCell VM [2]; library: Spectrum): inactive: 0

CC(C(=O)O)c1cccc(C(=O)c2ccccc2)c1 (centres undefined)
neuronal differentiation score (ReNCell VM [1]; library: Spectrum): inactive: 0 | dopaminergic neuron differentiation score (ReNCell VM [2]; library: Spectrum): inactive: 0

COc1ccc(C(=O)c2ccc(C)cc2)c(O)c1
neuronal differentiation score (ReNCell VM [1]; library: Spectrum): inactive: 0 | dopaminergic neuron differentiation score (ReNCell VM [2]; library: Spectrum): inactive: 0

Cn1ccnc1S
neuronal differentiation score (ReNCell VM [1]; library: Spectrum): inactive: 0 | dopaminergic neuron differentiation score (ReNCell VM [2]; library: Spectrum): inactive: 0

NC(=O)c1cc[n+](CC2=C(C(=O)O)N3C(=O)[C@@H](NC(=O)C(c4ccccc4)S(=O)(=O)[O-])[C@H]3SC2)cc1 (some centres undefined) [Cefsulodin sodium salt hydrate]
neuronal differentiation score (ReNCell VM [1]; library: LOPAC): inactive: 0 | dopaminergic neuron differentiation score (ReNCell VM [2]; library: LOPAC): inactive: 1

CN1CCc2c(cc(O)c(O)c2Cl)C(c2cccc(Cl)c2)C1 (centres undefined)
neuronal differentiation score (ReNCell VM [1]; library: LOPAC): inactive: -1 | dopaminergic neuron differentiation score (ReNCell VM [2]; library: LOPAC): inactive: 0

N[C@@H](Cc1cc(I)c(Oc2ccc(O)c(I)c2)c(I)c1)C(=O)O [LIOTHYRONINE (L- isomer) SODIUM]
neuronal differentiation score (ReNCell VM [1]; library: Spectrum): inactive: 0 | dopaminergic neuron differentiation score (ReNCell VM [2]; library: Spectrum): inactive: 0
